PubChem BioAssay AID504808 – Drosophila RNAi Screening Center, 2011

Test: 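Genes whose loss lifts activity of an E2F-responsive reporter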 (primary screen)
System: Drosophila S2 cells
Knock-down reagent: long dsRNA against Drosophila genes
Measured: 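Firefly luciferase driven by E2F sites, normalised to Renilla luciferase on the same minimal promoter, measured by plate reader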
Direction: E2F firefly: higher = more E2F reporter activity; Renilla normaliser: higher = more normaliser reporter signal
Active means: 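a knock-down counted as active when the firefly/Renilla E2F signal rose above 50%, a threshold chosen arbitrarily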
In all, the deposit lists about 21,000 reagents; shown is an unselected part of those that have a named target and a result. Over the whole deposit, 18 (0.084%) are marked active. 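Raw counts without plate normalisation, one of two replicates; the ratio scores behind the calls were not deposited.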 A number with no mark means an inactive call. The numbers tell different reagents against one gene apart. Names joined by + are all predicted targets of the reagent. Not stated in the record: the amount of reagent, the time to read-out.

| target gene | reagent no. | E2F firefly, rep 1 | Renilla normaliser, rep 1 |
| --- | --- | --- | --- |
| CG14062 | 1 | 1.20e5 | 6465 |
| Cchl | 1 | 71815 | 2882 |
| Calr | 1 | 1.40e5 | 7860 |
| Josd | 1 | 1.05e5 | 4918 |
| CG15478 | 1 | 3322 | 253 |
| CG16758 | 1 | 1.34e5 | 4484 |
| CG16758 | 2 | 75173 | 3239 |
| cic | 1 | 88938 | 4958 |
| cic | 2 | 95725 | 5815 |
| cic | 3 | 1.34e5 | 7709 |
| cic | 4 | 1.38e5 | 5858 |
| obst-A | 1 | 1.49e5 | 5413 |
| CG32856 | 1 | 97381 | 2665 |
| Eip63E | 1 | 61187 | 3254 |
| Su(z)12 | 1 | 1.65e5 | 8269 |
| Or94a | 1 | 1.18e5 | 5971 |
| Eglp2 | 1 | 84486 | 3444 |
| Cpr67Fa2 | 1 | 1.23e5 | 6530 |
| Sec63 | 1 | 1.00e5 | 4114 |
| CG4691 | 1 | 88934 | 4094 |
| RabX5 | 1 | 95231 | 4065 |
| CG6665 | 1 | 71563 | 3403 |
| Fmo-2 | 1 | 80977 | 3610 |
| CG5103 | 1 | 1.58e5 | 8234 |
| CG9970 | 1 | 96138 | 4011 |
| Vha100-2 | 1 | 70503 | 3611 |
| Jra | 1 | 4300 | 197 |
| CG34168 | 1 | 1.03e5 | 4170 |
| Ctns | 1 | 1.07e5 | 6539 |
| Npc2b | 1 | 1.04e5 | 5226 |
| Coq7 + shf | 1 | 1.29e5 | 6676 |
| GstD5 | 1 | 1.54e5 | 7381 |
| Prosalpha3 | 1 | 88085 | 4791 |
| eater | 1 | 1.23e5 | 6927 |
| CG13532 | 1 | 99476 | 4320 |
| CG13361 | 1 | 83878 | 4462 |
| CG4558 | 1 | 7368 | 616 |
| Prp18 | 1 | 56849 | 3509 |
| CG30376 | 1 | 1.33e5 | 5577 |
| CG7653 | 1 | 98667 | 3775 |
| emp | 1 | 1.42e5 | 6572 |
| emp | 2 | 83640 | 3714 |
| Ets96B | 1 | 1.06e5 | 5486 |
| nAChRalpha2 | 1 | 69934 | 3539 |
| Drep1 | 1 | 1.00e5 | 4337 |
| nAChRalpha4 | 1 | 1.01e5 | 4286 |
| Cyp6a19 | 1 | 138 | 20 |
| Cbp20 | 1 | 1.28e5 | 7608 |
| Cpsf100 | 1 | 2034 | 1048 |
| CG14990 | 1 | 94482 | 3966 |
| CG4036 | 1 | 80850 | 3128 |
| Vha68-1 | 1 | 95372 | 3861 |
| ScpX | 1 | 81847 | 3375 |
| Ubc4 | 1 | 74866 | 3715 |
| CG11404 | 1 | 1.15e5 | 5281 |
| CG6790 | 1 | 77641 | 3709 |
| lmgA + lmgB | 1 | 1.47e5 | 5183 |
| CG14722 | 1 | 68329 | 3171 |
| Setd3 | 1 | 1.07e5 | 6279 |
| Setd3 | 2 | 51677 | 3649 |
| CG31279 | 1 | 84154 | 2911 |
| trio | 1 | 1.39e5 | 4560 |
| trio | 2 | 82223 | 4397 |
| trio | 3 | 96950 | 3702 |
| Mrtf | 1 | 80667 | 3670 |
| Mrtf | 2 | 91481 | 3932 |
| Mrtf | 3 | 97140 | 4048 |
| CG5781 | 1 | 1.19e5 | 4262 |
| Pdp | 1 | 7629 | 824 |
| CG17807 | 1 | 86052 | 3564 |
| CG43322 | 1 | 1.44e5 | 4672 |
| Vha100-3 | 1 | 1.64e5 | 7114 |
| wbl | 1 | 1.58e5 | 4879 |
| stas | 1 | 1.48e5 | 5918 |
| CG6296 | 1 | 1713 | 940 |
| CG32299 + CG32298 | 1 | 1.36e5 | 4193 |
| Smg6 | 1 | 69316 | 3912 |
| CR9337 | 1 | 80302 | 3294 |
| CG9281 | 1 | 8564 | 716 |
| CG6484 | 1 | 72767 | 3458 |
| Obp99c | 1 | 1.26e5 | 5658 |
| CG5348 | 1 | 1.62e5 | 5694 |
| CG33090 | 1 | 78999 | 3659 |
| DCTN5-p25 | 1 | 99576 | 4751 |
